Some of the results follow.
What follows are targets tested with c1cn2cc(-c3ccc4cn[nH]c4c3)nc(Nc3ccc(N4CCOCC4)cc3)c2n1 [entospletinib] (assay: log2 fold change, soluble protein after heating vs DMSO (PISA); higher = thermal stabilisation; K562 cells, 10 uM, 30 min; active = over 0.2 and 3.5 SD of the protein, either way, in both replicates (recomputed)).
Summary of the method: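 Values are thermal stability changes relative to control samples and are taken from duplicates. They are stated as log2 fold changes. Before quantification by TMTpro 16plex LC-MS/MS with equalised channel sums, K562 cells at 2×10^6 cells/mL were treated with 10 μM compound for 30 min, heated in aliquots for 3 min across 48°C-58°C, pooled, extracted in PBS with 0.5% NP-40 at 4°C, and centrifuged at 21,000xg for 90 min to give the soluble supernatant.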

Sequences of proteins named here, by UniProt entry; tags and fusion partners are left off. A change or cut given only in a name is not applied to a line headed by its entry.
UniProt Q8ND04: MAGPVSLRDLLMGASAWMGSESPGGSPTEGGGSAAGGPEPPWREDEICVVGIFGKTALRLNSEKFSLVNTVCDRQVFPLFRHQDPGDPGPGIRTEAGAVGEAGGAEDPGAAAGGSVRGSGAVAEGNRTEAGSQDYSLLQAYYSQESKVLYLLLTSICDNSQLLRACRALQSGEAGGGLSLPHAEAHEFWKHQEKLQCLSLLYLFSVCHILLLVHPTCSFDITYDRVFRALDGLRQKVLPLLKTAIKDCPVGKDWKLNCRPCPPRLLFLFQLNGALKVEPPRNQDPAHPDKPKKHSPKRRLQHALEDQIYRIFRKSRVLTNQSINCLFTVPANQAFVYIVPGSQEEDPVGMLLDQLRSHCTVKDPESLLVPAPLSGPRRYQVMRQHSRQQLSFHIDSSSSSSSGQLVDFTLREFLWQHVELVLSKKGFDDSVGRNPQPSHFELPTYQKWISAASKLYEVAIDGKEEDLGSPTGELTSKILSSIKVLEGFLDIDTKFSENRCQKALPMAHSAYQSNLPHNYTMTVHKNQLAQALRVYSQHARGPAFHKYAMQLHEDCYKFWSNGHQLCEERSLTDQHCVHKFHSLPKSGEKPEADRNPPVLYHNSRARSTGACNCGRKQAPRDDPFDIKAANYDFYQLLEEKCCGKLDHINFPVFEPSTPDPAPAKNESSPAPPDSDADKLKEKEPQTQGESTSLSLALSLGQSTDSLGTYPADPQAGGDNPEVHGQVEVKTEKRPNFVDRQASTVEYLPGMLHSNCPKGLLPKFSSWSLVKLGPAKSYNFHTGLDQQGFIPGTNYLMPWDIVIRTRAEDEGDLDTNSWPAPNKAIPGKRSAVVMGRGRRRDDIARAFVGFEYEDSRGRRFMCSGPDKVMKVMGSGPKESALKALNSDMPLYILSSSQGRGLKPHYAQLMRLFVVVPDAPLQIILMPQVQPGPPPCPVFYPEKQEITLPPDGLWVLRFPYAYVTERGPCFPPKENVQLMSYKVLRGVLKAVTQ
UniProt Q96R06: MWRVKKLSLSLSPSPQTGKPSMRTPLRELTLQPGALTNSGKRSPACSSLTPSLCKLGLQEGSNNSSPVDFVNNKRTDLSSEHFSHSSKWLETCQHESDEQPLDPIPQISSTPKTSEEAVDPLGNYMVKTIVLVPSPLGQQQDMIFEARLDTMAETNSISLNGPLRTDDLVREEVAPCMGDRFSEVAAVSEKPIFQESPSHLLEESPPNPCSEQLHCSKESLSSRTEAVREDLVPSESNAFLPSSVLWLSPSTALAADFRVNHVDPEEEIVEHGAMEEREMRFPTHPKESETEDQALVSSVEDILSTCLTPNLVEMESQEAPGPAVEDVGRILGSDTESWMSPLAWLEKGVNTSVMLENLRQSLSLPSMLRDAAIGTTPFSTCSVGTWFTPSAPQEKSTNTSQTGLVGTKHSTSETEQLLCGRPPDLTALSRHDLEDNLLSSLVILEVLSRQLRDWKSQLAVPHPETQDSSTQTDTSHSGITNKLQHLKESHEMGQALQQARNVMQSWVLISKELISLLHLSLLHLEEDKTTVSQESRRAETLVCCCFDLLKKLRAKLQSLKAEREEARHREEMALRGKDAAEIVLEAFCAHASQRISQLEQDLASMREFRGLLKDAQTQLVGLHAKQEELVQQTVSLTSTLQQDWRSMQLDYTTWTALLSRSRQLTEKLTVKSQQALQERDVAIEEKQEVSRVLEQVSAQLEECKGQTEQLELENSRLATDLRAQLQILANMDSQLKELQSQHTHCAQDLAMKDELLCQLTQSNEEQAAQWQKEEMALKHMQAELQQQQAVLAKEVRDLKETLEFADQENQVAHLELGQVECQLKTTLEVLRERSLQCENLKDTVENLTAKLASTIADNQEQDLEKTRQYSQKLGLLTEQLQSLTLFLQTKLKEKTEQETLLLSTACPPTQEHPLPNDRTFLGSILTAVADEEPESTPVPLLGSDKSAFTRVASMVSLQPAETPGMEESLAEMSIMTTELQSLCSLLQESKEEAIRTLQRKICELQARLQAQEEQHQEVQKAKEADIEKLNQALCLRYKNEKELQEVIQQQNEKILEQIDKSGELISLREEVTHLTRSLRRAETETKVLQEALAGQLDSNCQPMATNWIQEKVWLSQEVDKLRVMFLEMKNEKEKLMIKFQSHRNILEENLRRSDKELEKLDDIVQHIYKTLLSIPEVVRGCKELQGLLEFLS
UniProt Q15036: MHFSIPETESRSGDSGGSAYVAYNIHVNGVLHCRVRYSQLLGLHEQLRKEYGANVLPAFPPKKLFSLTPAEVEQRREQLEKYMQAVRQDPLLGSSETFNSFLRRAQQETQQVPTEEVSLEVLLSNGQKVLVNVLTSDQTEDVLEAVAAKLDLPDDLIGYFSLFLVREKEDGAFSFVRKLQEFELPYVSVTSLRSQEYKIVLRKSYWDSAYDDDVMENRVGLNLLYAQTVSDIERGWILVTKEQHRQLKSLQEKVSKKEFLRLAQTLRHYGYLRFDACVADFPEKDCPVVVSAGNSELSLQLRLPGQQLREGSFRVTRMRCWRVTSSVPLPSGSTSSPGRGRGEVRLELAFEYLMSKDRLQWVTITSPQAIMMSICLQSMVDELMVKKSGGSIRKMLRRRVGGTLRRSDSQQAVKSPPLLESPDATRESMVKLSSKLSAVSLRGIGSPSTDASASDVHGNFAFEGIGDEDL
UniProt Q00796: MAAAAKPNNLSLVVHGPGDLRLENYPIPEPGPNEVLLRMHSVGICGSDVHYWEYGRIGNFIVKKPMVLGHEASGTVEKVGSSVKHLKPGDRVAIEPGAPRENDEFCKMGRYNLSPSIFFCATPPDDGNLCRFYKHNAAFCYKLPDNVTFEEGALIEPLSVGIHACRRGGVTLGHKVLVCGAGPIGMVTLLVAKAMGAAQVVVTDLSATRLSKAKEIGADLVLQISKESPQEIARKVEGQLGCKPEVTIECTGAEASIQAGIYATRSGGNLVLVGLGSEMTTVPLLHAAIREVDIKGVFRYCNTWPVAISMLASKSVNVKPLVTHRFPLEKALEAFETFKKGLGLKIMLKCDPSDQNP
UniProt O60906: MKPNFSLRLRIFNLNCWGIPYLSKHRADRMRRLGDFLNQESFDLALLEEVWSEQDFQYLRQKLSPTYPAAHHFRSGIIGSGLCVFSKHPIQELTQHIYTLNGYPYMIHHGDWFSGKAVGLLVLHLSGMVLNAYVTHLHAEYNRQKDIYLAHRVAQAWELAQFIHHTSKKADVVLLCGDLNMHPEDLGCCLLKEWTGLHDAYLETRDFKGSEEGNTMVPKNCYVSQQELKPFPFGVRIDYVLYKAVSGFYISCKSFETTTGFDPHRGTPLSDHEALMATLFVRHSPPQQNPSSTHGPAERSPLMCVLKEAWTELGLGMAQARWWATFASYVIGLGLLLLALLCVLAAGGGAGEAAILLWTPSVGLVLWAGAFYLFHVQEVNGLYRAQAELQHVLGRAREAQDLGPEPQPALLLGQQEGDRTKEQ
UniProt Q9Y5W7: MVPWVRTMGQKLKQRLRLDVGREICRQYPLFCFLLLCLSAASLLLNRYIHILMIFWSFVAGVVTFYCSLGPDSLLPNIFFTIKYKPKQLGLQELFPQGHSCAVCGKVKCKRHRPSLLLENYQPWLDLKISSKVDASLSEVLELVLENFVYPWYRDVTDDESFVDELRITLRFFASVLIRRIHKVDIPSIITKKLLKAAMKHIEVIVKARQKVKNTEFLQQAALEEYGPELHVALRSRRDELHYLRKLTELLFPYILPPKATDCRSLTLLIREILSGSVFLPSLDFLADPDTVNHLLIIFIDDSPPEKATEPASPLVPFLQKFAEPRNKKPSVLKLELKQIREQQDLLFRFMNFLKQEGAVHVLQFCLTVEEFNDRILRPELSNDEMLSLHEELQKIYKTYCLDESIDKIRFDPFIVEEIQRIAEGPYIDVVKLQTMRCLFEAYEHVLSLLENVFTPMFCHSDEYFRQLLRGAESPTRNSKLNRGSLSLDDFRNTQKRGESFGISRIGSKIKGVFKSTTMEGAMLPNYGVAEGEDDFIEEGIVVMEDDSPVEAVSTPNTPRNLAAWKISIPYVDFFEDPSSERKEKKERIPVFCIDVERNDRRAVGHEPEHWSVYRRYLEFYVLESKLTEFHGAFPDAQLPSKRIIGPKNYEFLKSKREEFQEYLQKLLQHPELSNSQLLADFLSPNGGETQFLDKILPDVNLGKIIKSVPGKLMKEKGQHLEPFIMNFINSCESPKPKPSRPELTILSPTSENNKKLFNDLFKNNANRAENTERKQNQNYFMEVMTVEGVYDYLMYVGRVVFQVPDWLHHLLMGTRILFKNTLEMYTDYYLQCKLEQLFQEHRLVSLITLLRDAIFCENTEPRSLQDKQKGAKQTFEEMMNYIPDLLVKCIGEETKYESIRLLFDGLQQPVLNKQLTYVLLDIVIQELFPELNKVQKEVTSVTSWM
UniProt Q14BN4: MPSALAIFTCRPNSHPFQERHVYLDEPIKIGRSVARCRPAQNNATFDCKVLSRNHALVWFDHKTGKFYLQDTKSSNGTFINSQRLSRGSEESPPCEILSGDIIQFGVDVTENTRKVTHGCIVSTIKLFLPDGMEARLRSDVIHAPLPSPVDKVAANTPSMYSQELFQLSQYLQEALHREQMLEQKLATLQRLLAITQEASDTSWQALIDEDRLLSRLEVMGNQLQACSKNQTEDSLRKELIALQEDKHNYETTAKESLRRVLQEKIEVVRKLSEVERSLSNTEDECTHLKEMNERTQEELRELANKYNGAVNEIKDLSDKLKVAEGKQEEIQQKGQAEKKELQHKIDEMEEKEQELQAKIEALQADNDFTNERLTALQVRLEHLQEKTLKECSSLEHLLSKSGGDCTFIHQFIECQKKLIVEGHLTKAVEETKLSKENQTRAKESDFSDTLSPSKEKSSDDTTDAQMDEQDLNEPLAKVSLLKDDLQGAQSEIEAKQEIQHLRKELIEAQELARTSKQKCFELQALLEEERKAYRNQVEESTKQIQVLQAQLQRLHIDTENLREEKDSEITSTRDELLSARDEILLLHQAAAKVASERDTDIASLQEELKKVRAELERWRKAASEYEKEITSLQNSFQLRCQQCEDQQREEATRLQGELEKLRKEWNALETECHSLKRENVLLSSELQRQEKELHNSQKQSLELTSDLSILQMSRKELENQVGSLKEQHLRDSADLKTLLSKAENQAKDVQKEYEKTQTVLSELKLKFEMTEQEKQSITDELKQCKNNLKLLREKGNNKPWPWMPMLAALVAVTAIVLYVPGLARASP
UniProt Q96EX1: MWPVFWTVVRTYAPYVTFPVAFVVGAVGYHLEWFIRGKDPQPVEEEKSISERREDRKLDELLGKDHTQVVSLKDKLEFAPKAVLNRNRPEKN
UniProt Q15599: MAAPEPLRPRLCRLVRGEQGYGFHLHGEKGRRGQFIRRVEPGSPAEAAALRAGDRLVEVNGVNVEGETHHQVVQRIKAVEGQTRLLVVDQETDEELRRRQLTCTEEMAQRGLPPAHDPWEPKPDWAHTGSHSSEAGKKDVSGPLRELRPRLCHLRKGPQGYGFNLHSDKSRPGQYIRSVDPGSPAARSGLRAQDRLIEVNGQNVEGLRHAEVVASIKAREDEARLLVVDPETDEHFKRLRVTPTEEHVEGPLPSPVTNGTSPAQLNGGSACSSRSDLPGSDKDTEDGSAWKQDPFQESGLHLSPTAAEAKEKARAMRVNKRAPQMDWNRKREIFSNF
UniProt Q53HV7: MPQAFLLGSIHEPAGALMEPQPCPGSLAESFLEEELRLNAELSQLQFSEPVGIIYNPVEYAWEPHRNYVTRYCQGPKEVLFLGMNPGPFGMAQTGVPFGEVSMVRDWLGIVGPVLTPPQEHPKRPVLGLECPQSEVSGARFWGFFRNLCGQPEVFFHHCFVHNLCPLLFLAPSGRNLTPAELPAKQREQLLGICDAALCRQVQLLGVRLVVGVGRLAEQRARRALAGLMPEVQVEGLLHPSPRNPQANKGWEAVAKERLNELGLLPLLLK
UniProt P62304, whole entry, looked up: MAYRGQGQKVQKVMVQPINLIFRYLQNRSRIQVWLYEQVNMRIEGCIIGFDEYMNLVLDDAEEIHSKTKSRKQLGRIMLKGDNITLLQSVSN
UniProt Q13425: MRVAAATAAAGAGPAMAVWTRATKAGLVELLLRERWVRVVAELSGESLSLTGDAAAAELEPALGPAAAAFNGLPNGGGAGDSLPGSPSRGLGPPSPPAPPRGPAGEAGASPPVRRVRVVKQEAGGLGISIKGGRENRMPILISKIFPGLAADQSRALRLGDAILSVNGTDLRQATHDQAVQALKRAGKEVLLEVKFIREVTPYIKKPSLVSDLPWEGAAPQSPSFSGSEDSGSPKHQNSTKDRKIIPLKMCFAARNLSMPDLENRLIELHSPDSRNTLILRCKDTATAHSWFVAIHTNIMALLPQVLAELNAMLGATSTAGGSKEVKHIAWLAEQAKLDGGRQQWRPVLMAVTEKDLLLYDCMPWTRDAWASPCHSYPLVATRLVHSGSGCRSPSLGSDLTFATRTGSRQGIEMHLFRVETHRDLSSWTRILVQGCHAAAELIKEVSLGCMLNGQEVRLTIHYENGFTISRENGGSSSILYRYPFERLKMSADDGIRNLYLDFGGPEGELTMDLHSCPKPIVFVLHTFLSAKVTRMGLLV

log2 fold change, inactive:
SMG8 isoform 2 (UniProt Q8ND04) 0.054, SOS1 (UniProt Q07889) -0.008, SPAG5 (UniProt Q96R06) 0.13, SNX17 (UniProt Q15036) -0.061, SNRPA1 (UniProt P09661) -0.043, SORD (UniProt Q00796) -0.005, SMPD2 (UniProt O60906) -0.012, SNX14 (UniProt Q9Y5W7) -0.028, SMNDC1 (UniProt O75940) -0.118, SP4 (UniProt Q02446) 0.09, SLMAP (UniProt Q14BN4) 0.029, SMIM12 (UniProt Q96EX1) -0.003, SLC9A3R2 (UniProt Q15599) 0.024, SMS (UniProt P52788) -0.018, SOCS2 (UniProt O14508) -0.029, SNRPD2 (UniProt K7EJB5) -0.068, SMUG1 (UniProt Q53HV7) -0.166, SNRPE (UniProt P62304) 0.015, SNAP91 (UniProt O60641) -0.058, SMARCC2 (UniProt Q8TAQ2) -0.114, SNRPN isoform 2 (UniProt P63162) -0.086, SMARCD2 (UniProt Q92925) 0.165, SNTB2 (UniProt Q13425) -0.065

Reference: the supplement of paper PMC10849652
